Measurements reported in PubChem BioAssay AID504847 (National Center for Advancing Translational Sciences (NCATS), 2011).
Out of some 400,000 compounds screened, about 3,700 (0.93%) were called active. The shares of active, inactive and inconclusive entries below differ from those in the screen. The call rests on the fitted dose curve; in most records, active means well fitted inhibition curve with a large enough effect; inconclusive means small, poorly fitted or top-dose-only effect, or another doubt; inactive means no such curve, though single readings can be large or run the other way. Potencies of inconclusive entries are doubtful fits and often do not repeat.

Chains of the proteins cited; added tags and fusions are not shown. Lines headed by an entry give the natural chain unless they say otherwise; changes in a name come on top.
UniProt P11473: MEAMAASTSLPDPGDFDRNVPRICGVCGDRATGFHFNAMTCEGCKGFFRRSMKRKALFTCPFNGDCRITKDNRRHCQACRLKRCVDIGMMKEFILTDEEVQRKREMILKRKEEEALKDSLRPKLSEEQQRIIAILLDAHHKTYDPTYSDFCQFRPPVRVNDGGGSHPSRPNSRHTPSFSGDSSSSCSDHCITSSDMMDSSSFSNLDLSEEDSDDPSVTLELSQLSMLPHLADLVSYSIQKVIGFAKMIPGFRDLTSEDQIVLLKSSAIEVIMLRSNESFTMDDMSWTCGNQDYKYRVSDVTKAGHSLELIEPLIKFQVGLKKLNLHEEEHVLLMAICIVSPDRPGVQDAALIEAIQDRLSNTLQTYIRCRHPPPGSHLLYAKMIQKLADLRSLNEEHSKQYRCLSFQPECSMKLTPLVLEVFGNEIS

molecular target: Vitamin D3 receptor (Homo sapiens) (UniProt P11473); test: Inhibitors of the vitamin D receptor (VDR): qHTS; settings: VDR-SRC2-3 peptide fluorescence polarization, 2 h; max response, negative = inhibition: hits give low values
Method in brief: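 Fluorescence polarization assay of small-molecule disruption of VDR binding to coregulator peptide SRC2-3. Compounds and controls pin-transferred, then read after 2 h incubation at ambient room temperature.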
On the % scale 0 is the no-effect control and ±100 the full control effect; potency means the concentration at half of the fitted maximal effect.

SMILES | Potency | max response, negative = inhibition
O=C(O)c1cc(N(Cc2ccccc2O)Cc2cc(O)ccc2O)ccc1O | active: 50.1 µM | –
O=c1cc(-c2ccc(O)c(O)c2)oc2ccccc12 | inconclusive: 56.2 µM [inhibitor, partial curve] | –
O=C(Nc1nc(-c2ccccn2)cs1)c1ccccc1-n1cnnn1 | inconclusive: 22.4 µM [inhibitor, partial curve, poor fit] | –
CSC(=S)NN=C(C)c1cccc(C)n1 | inconclusive: 100 µM [inhibitor, single point] | –
CN(C)c1ccc(CN(Cc2ccco2)C(=O)COc2ccc(F)cc2)cc1 | – | inactive: 15.8%
COC(=O)CCS(=O)(=O)c1nc(-c2ccccc2)cc(C(F)(F)F)n1 | active: 20 µM | –
Cc1cc(/C=C2\C(=O)NN(c3ccccc3)C2=O)c(C)n1-c1ccccc1O | – | inactive: -14.8%
CCn1c(SCC(=O)Nc2cc3oc4ccccc4c3cc2OC)nnc1-c1cccs1 | inconclusive: 89.1 µM [inhibitor, single point] | –
N#C/C(=C\c1ccc(O)c(O)c1)C(=O)NCCCc1ccccc1 | inconclusive: 50.1 µM [inhibitor, partial curve] | –
Cc1ccc(C(=O)CC(C(=O)O)n2cccn2)cc1 (stereo not given) | – | inactive: -3.41%
Nc1c(C(=O)NC2CCCC2)sc2nc(-c3cccs3)ccc12 | – | inactive: -19%
Cc1sc2nc(SCc3ccc(C(=O)O)cc3)n(Cc3ccco3)c(=O)c2c1C | active: 89.1 µM | –
CCOC(=O)C(Cc1ccc(NC(=O)/C(=C/c2ccccc2)NC(=O)c2ccccc2)cc1)N1C(=O)c2ccccc2C1=O (stereo not given) | – | inactive: 0.527%
CCNC(=O)NC(=O)C(C)OC(=O)CNS(=O)(=O)c1c(Cl)cc(Br)cc1Cl (stereo not given) | inconclusive: 100 µM [inhibitor, partial curve, poor fit] | –
Cc1ccc(C(=O)CSc2nsc(C)c2C#N)cc1 | inconclusive: 56.2 µM [inhibitor, partial curve, poor fit] | –
COCCN(CC(=O)NC1CCCCC1)C(=O)/C=C/C(=O)c1ccc(OC)cc1O | active: 15.8 µM | –
O=C(CSc1nncn1-c1ccccc1)Nc1ccc(N2CCOCC2)cc1 | inconclusive: 28.2 µM [inhibitor, partial curve, poor fit] | –
NNC(=O)c1cccc(Cn2cc(Br)c([N+](=O)[O-])n2)c1 | – | inactive: -17.8%
CCOC(=O)c1c(S(=O)(=O)N2CCCC(C(=O)NCc3ccc(F)cc3)C2)c(C)n(CC)c1C (stereo not given) | – | inactive: 12%
CN(C)c1ccc(C(=S)N2CCN(c3ccc([N+](=O)[O-])cc3)CC2)cc1 | active: 79.4 µM | –
CCOc1ccc(CN2CCNC(=O)C2CC(=O)NC2CCOCC2)cc1 (stereo not given) | inconclusive: 79.4 µM [inhibitor, single point] | –
O=S(=O)(c1ccc(NC(=S)NN=C(C2CC2)C2CC2)cc1)N1CCOCC1 | inconclusive: 100 µM [inhibitor, single point] | –
CC(C)CC(=O)N1CCN(Cc2ccc3ccccc3c2)CC1 | – | inactive: -14.3%

SMILES | Potency | max response, negative = inhibition
CC(=O)Nc1ccc(C=NNc2ccc(S(=O)(=O)Nc3ccccc3C(=O)O)cc2[N+](=O)[O-])cc1 | inconclusive: 89.1 µM [inhibitor, single point] | –
CCCCOc1ccc(/C=N/NC(=O)c2nnn(-c3nonc3N)c2C)cc1 | inconclusive: 79.4 µM [inhibitor, partial curve, poor fit] | –
CCO[C@H]1OC(C(=O)N2CCOCC2)=C[C@@H](c2ccccc2)[C@@H]1CCCO | – | inactive: 8.43%
CN(CC(=O)Nc1ccc(F)cc1)C(=O)COC(=O)/C=C/c1cccs1 | inconclusive: 89.1 µM [inhibitor, single point] | –
CCOc1ccc(NC2=CC(=O)C(=O)c3ccccc32)cc1 | inconclusive: 70.8 µM [inhibitor, single point] | –
CC(C)(C)OC(=O)N1CCC(c2c(C(=O)N3CCN(C(=O)c4ccco4)CC3)cnn2-c2ccc(F)cc2)CC1 | inconclusive: 1.41 µM [inhibitor, partial curve, poor fit] | –
O=c1cc(-c2ccco2)oc2c1ccc1ccccc12 | inconclusive: 70.8 µM [inhibitor, single point] | –
COc1cc(C2=N/C(=C\c3ccccc3)C(=O)O2)cc(OC)c1OC | inconclusive: 8.91 µM [inhibitor, full curve] | –
CCOc1cc(/C=N\Nc2nc(Nc3ccccc3)nc(N3CCOCC3)n2)ccc1OC(=O)c1ccco1 | – | inactive: 1.83%
O=C(/C=C/c1ccccc1)c1cc(Br)ccc(=O)c1O | active: 22.4 µM | –
Cc1cc(F)ccc1S(=O)(=O)NCC1CC2CCC1C2 (stereo not given) | – | inactive: 7.4%
N#CC1=C(N)C(C#N)(C#N)[C@H](c2ccncc2)[C@H]2CN(C(=O)OCc3ccccc3)CC=C12 | inconclusive: 15.8 µM [inhibitor, full curve, poor fit] | –
CCOC(=O)C1CCCN(c2nc3ccccc3nc2NS(=O)(=O)c2ccc(C)cc2)C1 (stereo not given) | – | inactive: -17.2%
CCc1ccc(/C=C2\SC(=S)N(CCCC(=O)Nc3ccc(C(=O)O)cc3)C2=O)cc1 | – | inactive: 11.3%
O=C(Nc1ccccc1OC(F)F)c1cccc(S(=O)(=O)N2CCCC2)c1 | inconclusive: 15.8 µM [inhibitor, partial curve, poor fit] | –
CC(C)(C)c1ccc(S(=O)(=O)/N=C2\C=C(NS(=O)(=O)c3ccccc3)C(=O)c3ccccc32)cc1 | inconclusive: 89.1 µM [inhibitor, single point] | –
Clc1ccccc1CNCC1CCC(CNCc2ccccc2Cl)CC1 (stereo not given) | – | inactive: -0.624%
CC(C)(C)c1nnc(N/N=C/c2ccccc2)n(N)c1=O | – | inactive: -7.78%
O=C(NCc1ccc(F)cc1)C1CCN(S(=O)(=O)N2CCCC2)CC1 | inconclusive: 28.2 µM [inhibitor, single point] | –
CN1CCN(c2ccc([N+](=O)[O-])cc2NC(=O)c2ccco2)CC1 | – | inactive: -4.25%
O=C(COc1ccc(F)cc1)N(Cc1cccc(Br)c1)C1CCS(=O)(=O)C1 (stereo not given) | inconclusive: 35.5 µM [inhibitor, partial curve, poor fit] | –
NC(=O)c1cccnc1Oc1cccc(Cl)c1 | inconclusive: 22.4 µM [inhibitor, partial curve] | –
CCc1nc(SCC(=O)c2cc(C)ccc2C)n[nH]1 | inconclusive: 56.2 µM [inhibitor, partial curve, poor fit] | –
Cc1ccc(-c2nc(CS(=O)CC(=O)NC3CCC(C)CC3)c(C)o2)cc1 (stereo not given) | inconclusive: 0.562 µM [inhibitor, partial curve, poor fit] | –

SMILES | Potency | max response, negative = inhibition
O=C(CSc1nnc(-c2ccccc2F)n1C1CC1)NCc1ccco1 | – | inactive: 1.02%
COc1cc(-c2nc3sccn3c2Nc2c(C)cccc2C)ccc1O | inconclusive: 79.4 µM [inhibitor, partial curve] | –
O=C(Nc1ncccc1O)c1ccc(Oc2ccccc2)cc1 | inconclusive: 70.8 µM [inhibitor, single point] | –
O=C(O)c1cccc(NS(=O)(=O)c2cccc3cccnc23)c1 | inconclusive: 44.7 µM [inhibitor, partial curve, poor fit] | –
CC(C)(C)c1ccc(C(=O)CSc2ncn[nH]2)cc1 | inconclusive: 20 µM [inhibitor, full curve, poor fit] | –
O=c1c2ccccc2ncn1Cc1ccc(Cl)c(Cl)c1 | – | inactive: -10%
Cc1cc(=O)[nH]c(NN=Cc2cc(Br)ccc2O)n1 | – | inactive: 18.3%
C[C@@H]1CCC[C@H](C)N1 | – | inactive: 0.368%
COc1cccc(CN(C)C(=O)COc2cccc3c2OC(C)(C)C3)c1OC | – | inactive: -12.8%
COC(=O)C1=C(C)N(CC2CCCO2)C(=O)/C1=C\c1ccc(O)cc1 (stereo not given) | – | inactive: -13.6%
O=C(NCCCN1CCC(Cc2ccccc2)CC1)C1CC(=O)N(C2CCCCCC2)C1 (stereo not given) | inconclusive: 89.1 µM [inhibitor, single point] | –
CC(=O)Nc1ccc(NC(=O)c2nc(S(=O)(=O)Cc3ccc(F)cc3)ncc2Cl)cc1 | inconclusive: 22.4 µM [inhibitor, partial curve, poor fit] | –
Cc1ccc(NNC(N)=S)cc1Cl | active: 79.4 µM | –
CCCc1nc(SCC(=O)c2ccc3c(c2)NC(=O)CO3)[nH]c(=O)c1CC | inconclusive: 63.1 µM [inhibitor, partial curve, poor fit] | –
CN(C)c1ccc(Nc2ncnc3ccc(Br)cc23)cc1 | inconclusive: 79.4 µM [inhibitor, partial curve, poor fit] | –
CCOC(=O)c1sc(=S)n(-c2ccccc2Cl)c1SC | – | inactive: 5.74%
O=S1(=O)CCN2C(c3cccc4ccccc34)=CSC2=N1 | inconclusive: 70.8 µM [inhibitor, partial curve, poor fit] | –
O=C(NC(=S)Nc1ccc(NC(=O)c2cccs2)cc1)c1cc2ccccc2o1 | – | inactive: -5.67%
COc1ccc(CS(=O)/C(Cl)=C(/Cl)C(=O)Nc2ccc(OC)nc2)cc1 (stereo not given) | active: 20 µM | –
N#CCc1c(C#N)c(N)nc(N2CCOCC2)c1C#N | inconclusive: 89.1 µM [inhibitor, partial curve, poor fit] | –
O=C(c1ccco1)N1CCC2(CC1)CCN(c1cccc(-c3ccccc3)c1)CC2 | inconclusive: 44.7 µM [inhibitor, partial curve, poor fit] | –
O=C(Nc1ccc2[nH]c(=O)[nH]c2c1)Nc1ccc(F)cc1F | inconclusive: 89.1 µM [inhibitor, partial curve, poor fit] | –

In the list so far, 4 contain a nitro group on carbon:
SMILES | Potency | max response, negative = inhibition
NNC(=O)c1cccc(Cn2cc(Br)c([N+](=O)[O-])n2)c1 | – | inactive: -17.8%
CN(C)c1ccc(C(=S)N2CCN(c3ccc([N+](=O)[O-])cc3)CC2)cc1 | active: 79.4 µM | –
CC(=O)Nc1ccc(C=NNc2ccc(S(=O)(=O)Nc3ccccc3C(=O)O)cc2[N+](=O)[O-])cc1 | inconclusive: 89.1 µM [inhibitor, single point] | –
CN1CCN(c2ccc([N+](=O)[O-])cc2NC(=O)c2ccco2)CC1 | – | inactive: -4.25%
